Results from patent US20250222065A1, “CYCLIC POLYPEPTIDE FOR THE TREATMENT OF PHA TYPE 1B” (priority 2015, published 2025).
Changes are numbered by the printed parent chain. For at least one compound, name, drawing or mass did not settle the structure.

Tests used:
αG70Sβγ-hENaC = molecular target: T1, αG70Sβγ-hENaC (Homo sapiens, UniProt P37088+P51168+P51170, G70S); assay: Whole cell patch clamp, HEK-293 cells expressing mutant αG70Sβγ-hENaC; format: cell-based; conditions: HEK-293, whole cell patch clamp; no-peptide current: loss-of-function
T1 construct: expressed in transfected cells; host or cells: HEK-293
T1 sequence (P37088 1-669 G70S): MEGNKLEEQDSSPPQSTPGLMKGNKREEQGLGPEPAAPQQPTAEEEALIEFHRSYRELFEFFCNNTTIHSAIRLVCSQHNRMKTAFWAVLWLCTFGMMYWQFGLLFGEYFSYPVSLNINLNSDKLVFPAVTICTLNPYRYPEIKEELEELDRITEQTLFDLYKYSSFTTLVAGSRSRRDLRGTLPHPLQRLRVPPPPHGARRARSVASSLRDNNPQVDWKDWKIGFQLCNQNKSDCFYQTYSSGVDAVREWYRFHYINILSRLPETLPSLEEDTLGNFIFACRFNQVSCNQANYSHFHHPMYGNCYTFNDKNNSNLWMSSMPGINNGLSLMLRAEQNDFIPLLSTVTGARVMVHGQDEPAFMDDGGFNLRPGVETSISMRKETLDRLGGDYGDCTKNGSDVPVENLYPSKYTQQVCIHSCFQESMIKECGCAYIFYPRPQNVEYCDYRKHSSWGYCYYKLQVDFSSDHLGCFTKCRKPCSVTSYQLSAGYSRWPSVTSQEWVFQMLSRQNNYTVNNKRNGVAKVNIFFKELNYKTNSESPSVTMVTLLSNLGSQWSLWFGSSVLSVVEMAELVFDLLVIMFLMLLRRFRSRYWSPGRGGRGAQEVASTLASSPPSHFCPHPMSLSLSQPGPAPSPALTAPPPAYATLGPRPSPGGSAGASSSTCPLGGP
T1 sequence (P51168 1-640): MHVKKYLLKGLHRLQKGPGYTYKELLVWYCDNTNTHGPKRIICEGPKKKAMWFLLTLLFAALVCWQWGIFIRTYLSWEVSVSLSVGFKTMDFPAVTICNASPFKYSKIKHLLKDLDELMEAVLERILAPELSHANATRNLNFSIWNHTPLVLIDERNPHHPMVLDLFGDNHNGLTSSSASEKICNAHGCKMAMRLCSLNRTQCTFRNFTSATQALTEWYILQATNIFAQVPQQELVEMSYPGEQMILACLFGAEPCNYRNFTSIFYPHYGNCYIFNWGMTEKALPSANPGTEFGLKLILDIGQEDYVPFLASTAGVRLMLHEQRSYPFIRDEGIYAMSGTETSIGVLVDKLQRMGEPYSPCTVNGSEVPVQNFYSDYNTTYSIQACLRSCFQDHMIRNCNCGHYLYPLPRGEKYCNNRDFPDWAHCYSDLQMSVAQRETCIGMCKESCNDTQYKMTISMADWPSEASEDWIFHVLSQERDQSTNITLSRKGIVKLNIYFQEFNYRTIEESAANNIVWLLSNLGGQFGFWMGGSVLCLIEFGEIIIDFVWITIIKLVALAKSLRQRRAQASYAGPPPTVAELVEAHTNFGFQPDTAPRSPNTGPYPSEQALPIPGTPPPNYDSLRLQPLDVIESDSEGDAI
T1 sequence (P51170 1-649): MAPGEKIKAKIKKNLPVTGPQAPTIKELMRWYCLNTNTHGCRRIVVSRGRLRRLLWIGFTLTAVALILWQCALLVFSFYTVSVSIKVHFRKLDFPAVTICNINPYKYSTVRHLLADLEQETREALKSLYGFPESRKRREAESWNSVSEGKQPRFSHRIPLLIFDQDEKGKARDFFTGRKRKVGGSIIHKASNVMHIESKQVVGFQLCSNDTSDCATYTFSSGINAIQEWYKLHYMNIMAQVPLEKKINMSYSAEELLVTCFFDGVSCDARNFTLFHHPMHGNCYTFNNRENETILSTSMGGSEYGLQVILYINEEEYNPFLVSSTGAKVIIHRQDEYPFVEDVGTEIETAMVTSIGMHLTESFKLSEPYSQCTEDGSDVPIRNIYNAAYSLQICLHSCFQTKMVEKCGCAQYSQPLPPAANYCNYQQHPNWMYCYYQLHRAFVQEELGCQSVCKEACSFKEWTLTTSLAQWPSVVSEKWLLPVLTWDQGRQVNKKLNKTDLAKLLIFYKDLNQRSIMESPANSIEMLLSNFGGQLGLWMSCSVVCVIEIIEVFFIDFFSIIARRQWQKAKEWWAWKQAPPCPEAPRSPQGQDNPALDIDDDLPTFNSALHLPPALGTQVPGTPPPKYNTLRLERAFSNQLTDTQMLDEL

αG327Cβγ-hENaC = molecular target: T2, αG327Cβγ-hENaC (Homo sapiens, UniProt P37088+P51168+P51170, G327C); assay: Whole cell patch clamp, HEK-293 cells expressing PHA type IB mutant αG327Cβγ-hENaC; format: cell-based; conditions: HEK-293, whole cell patch clamp; no-peptide current: loss-of-function
T2 construct: expressed in transfected cells; host or cells: HEK-293
T2 sequence (P37088 1-669 G327C): T1 sequence (P37088 1-669 G70S) with S70G, G327C
T2 sequence (P51168 1-640): T1 sequence (P51168 1-640)
T2 sequence (P51170 1-649): T1 sequence (P51170 1-649)

C[C@@H]1NC(=O)CNC(=O)[C@H](CCC(=O)O)NC(=O)[C@@H]2CCCN2C(=O)[C@H]([C@@H](C)O)NC(=O)[C@H](CCC(=O)O)NC(=O)[C@H](CCCNC(=N)N)NC(=O)[C@H](CCC(N)=O)NC(=O)CNC(=O)[C@@H](N)CSSC[C@@H](C(=O)O)NC(=O)[C@H](Cc2ccc(O)cc2)NC(=O)[C@H](Cc2c[nH]c3ccccc23)NC(=O)[C@@H]2CCCN2C(=O)[C@H](CCCCN)NC(=O)[C@H](C)NC(=O)[C@H](CCC(=O)O)NC1=O [AP301]
AP301 restored Na+ current (αG70Sβγ-hENaC): 392.1 ± 14.2 pA | AP301 restored Na+ current (αG327Cβγ-hENaC): 196.8 ± 16.7 pA
